PubChem BioAssay AID1259280 | Sanger Institute – 2017
The deposit covers 794 reagents; below is an unselected part. Of all reagents, 12 (1.5%) are marked active. 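Calls cover knock-down without drug only; synergy scores stand apart, values above 0.15 being treated as synergy.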 A number with no mark means an inactive call. No viability above 1 is reported: the scale is capped. Further read-outs or replicates are left out here. The record does not give: the amount of reagent, the time to read-out.

Screen: 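Essential kinases and drug-combination synergies in SNU407 cells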 (primary screen)
Cell system: human SNU407 colorectal cancer cells
Reagents: siRNA pool against human genes
Challenge: anchor drugs BYL719 at 1 µM, cetuximab at 5 µg/ml or trametinib at 10 nM, or DMSO vehicle alone; exposure time not given
Detection: 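Viability relative to non-targeting control siRNA, expressed as robust z-score, plus a synergy score for each of the three anchor drugs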
Direction: viability z-score, no drug and viability vs control, no drug: higher = more cells survive the knock-down
Hit rule: 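a knock-down counts as essential when its robust viability z-score without drug is below -3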
Meaning of the calls: active = essential (knock-down alone kills cells); inactive = no change without drug

The opening 2 records, to show the layout:
no.	gene	viability z-score, no drug	viability vs control, no drug (fraction of control)
1	ACVRL1	0.901	1
2	DCLK3	0.226	0.948

The list itself, from the first entry:
no.	gene	viability z-score, no drug	viability vs control, no drug (fraction of control)
1	ACVRL1	0.901	1
2	DCLK3	0.226	0.948
3	CDK3	0.901	1
4	EPHB3	-1.11	0.846
5	BCKDK	-0.645	0.882
6	NRBP2	-0.407	0.9
7	MAGI3	-0.436	0.898
8	PIP4K2A	0.901	1
9	NRK	0.901	1
10	LMBR1	0.76	0.989
11	CDC7	-0.661	0.881
12	AMHR2	0.66	0.982
13	POMK	0.6	0.977
14	YES1	-0.264	0.911
15	PIP5KL1	0.794	0.992
16	LMTK2	-1.25	0.835
17	NLK	0.901	1
18	ULK1	0.0854	0.938
19	EIF2AK1	0.0189	0.933
20	MVK	-0.0409	0.928
21	HIPK3	0.367	0.959
22	PCK1	-0.0265	0.929
23	PAK4	0.864	0.997
24	PRKCH	-1.03	0.852
25	PRAG1	-2.68	0.727
26	CAMKK2	0.654	0.981
27	TPD52L3	-0.458	0.896
28	CDKN1C	0.857	0.997
29	PTPN11	-0.671	0.88
30	PKM	0.163	0.944
31	TCF7L2	0.901	1
32	MAP4K3	-0.274	0.91
33	CSNK2A1	0.901	1
34	PRP4K	0.0795	0.937
35	ACVR2B	-0.305	0.908
36	CHKA	-1.83	0.791
37	CSNK1G1	0.901	1
38	MAP2K6	0.901	1
39	TYRO3	-0.274	0.91
40	DGKB	-1.39	0.825
41	ULK4	-1.21	0.838
42	ITPK1	0.901	1
43	CAMK1	0.901	1
44	EPHB2	-0.103	0.923
45	STK32B	-0.294	0.909
46	PI4K2B	0.882	0.999
47	FASTK	-0.737	0.875
48	PHKG2	0.833	0.995
49	HK2	-1.37	0.826
50	ALPK3	-1.36	0.827
